# Measurements reported in PubChem BioAssay AID652243 (Drosophila RNAi Screening Center, 2013).
# Assay: 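Fly regulators of androgen-dependent reporter output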 (primary screen)
# Cells: Drosophila S2R+ cells
# Reagent: long dsRNA against Drosophila genes
# Time to read-out: 72 h (48 h, then 24 h hormone)
# Conditions: synthetic androgen R1881 at 10 nM for 24 h
# Measured: 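Per-well raw luminescence of the androgen-driven firefly reporter and of the Renilla control, two replicates each, without normalisation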
# Direction: firefly reporter light: higher = more light from androgen-responsive reporter; Renilla control light: higher = more constitutive control signal (cell number, transfection)
# Active means: 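Hit when the log firefly-to-Renilla ratio dropped or increased by a fixed fold versus the mean of GFP or LacZ controls across duplicate plates; lowering cut given as 1.5 and as 3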
# Calls: active = hit: reporter lowered or raised; inactive = no hit
# In all, the deposit lists about 24,000 reagents; this is a random part of those that have a named target and a result. In the full data, 246 (1%) are marked active. 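Plates not normalised; calls are printed but the firefly/Renilla ratio behind them is not deposited; fold cut for lowering reported inconsistently.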 The raw values are shown without normalisation. No sequences are given here. The record does not give: the amount of reagent.
The opening 7 entries as a preview:
gene knocked down,DRSC id,"firefly reporter light, replicate 1","firefly reporter light, replicate 2","Renilla control light, replicate 1","Renilla control light, replicate 2",call
CG8675,DRSC20117,1.59e5,1.02e5,9.57e5,7.35e5,inactive
CG8675,DRSC27658,4.34e5,4.66e5,4.68e5,9.81e5,inactive
kirre,DRSC18785,4.16e5,4.98e5,4.38e6,4.48e6,inactive
kirre,DRSC24733,4.27e5,4.54e5,4.07e5,4.70e5,inactive
lncRNA:CR34335,DRSC38742,6.51e5,5.47e5,1.48e6,1.69e6,inactive
vig,DRSC03630,5.34e5,2.85e5,2.75e6,2.30e6,inactive
vig,DRSC21672,1.46e6,1.15e6,2.12e6,1.86e6,inactive

Main list, from the start:
gene knocked down,DRSC id,"firefly reporter light, replicate 1","firefly reporter light, replicate 2","Renilla control light, replicate 1","Renilla control light, replicate 2",call
CG8675,DRSC20117,1.59e5,1.02e5,9.57e5,7.35e5,inactive
CG8675,DRSC27658,4.34e5,4.66e5,4.68e5,9.81e5,inactive
kirre,DRSC18785,4.16e5,4.98e5,4.38e6,4.48e6,inactive
kirre,DRSC24733,4.27e5,4.54e5,4.07e5,4.70e5,inactive
lncRNA:CR34335,DRSC38742,6.51e5,5.47e5,1.48e6,1.69e6,inactive
vig,DRSC03630,5.34e5,2.85e5,2.75e6,2.30e6,inactive
vig,DRSC21672,1.46e6,1.15e6,2.12e6,1.86e6,inactive
lbk,DRSC07178,6.98e5,8.34e5,7.16e5,8.45e5,inactive
Pfk,DRSC07506,6.83e5,5.40e5,1.46e6,1.03e6,inactive
Pfk,DRSC27413,3.23e5,2.58e5,5.95e5,6.86e5,inactive
Pfk,DRSC39287,,,,,inactive
CG3618,DRSC11746,26979,33235,3.09e5,3.08e5,inactive
CG14285,DRSC14766,2.38e5,2.40e5,2.62e6,2.98e6,inactive
Muc30E,DRSC01101,4.18e5,4.03e5,2.11e6,2.43e6,inactive
Muc30E,DRSC28881,4.32e5,6.70e5,1.07e6,1.12e6,inactive
Cyp40,DRSC10980,6.99e5,5.79e5,8.60e5,8.01e5,inactive
Cyp40,DRSC29553,2.63e5,3.36e5,6.83e5,6.83e5,inactive
CG6891,DRSC20016,1.20e5,1.15e5,9.20e5,1.08e6,inactive
CG6891,DRSC25854,2.19e5,2.78e5,6.36e5,6.51e5,inactive
BomBc1,DRSC06501,81536,1.39e5,1.45e6,1.45e6,inactive
BomBc1,DRSC23723,5.56e5,4.70e5,4.78e5,4.79e5,inactive
CG34210,DRSC04579,3.62e5,3.39e5,2.58e6,1.83e6,inactive
BHD,DRSC11017,1.55e6,4.85e5,1.97e6,8.24e5,inactive
BHD,DRSC22833,4.46e5,1.17e6,3.74e5,8.58e5,inactive
BHD,DRSC27469,3.04e5,4.55e5,6.85e5,8.90e5,inactive
CG9961,DRSC00738,,,,,inactive
CG9961,DRSC23343,7.14e5,9.01e5,1.85e6,2.19e6,inactive
CG9961,DRSC25842,5.02e5,4.56e5,7.92e5,8.60e5,inactive
CG31446,DRSC13111,67718,65504,1.12e5,1.28e5,inactive
CG33203,DRSC14876,2.59e5,2.31e5,2.35e6,4.09e6,inactive
CG33203,DRSC14877,4.40e5,5.84e5,1.32e6,1.66e6,inactive
CG33203,DRSC23428,6.01e5,8.59e5,7.92e5,9.75e5,inactive
CG7772,DRSC20056,70837,99022,8.74e5,1.11e6,inactive
Dhc64C,DRSC08656,6.87e5,7.86e5,1.35e6,1.40e6,inactive
Dhc64C,DRSC25497,3.69e5,2.31e5,4.55e5,4.89e5,inactive
Obp99d,DRSC15046,1.20e5,81251,1.18e6,2.09e6,inactive
Daao2,DRSC02135,8.69e5,7.53e5,1.96e6,1.78e6,inactive
Marcal1,DRSC02718,1.04e5,75077,1.21e6,7.34e5,inactive
CG5126,DRSC00680,6.51e5,9.47e5,2.30e6,1.87e6,inactive
CG17195,DRSC15188,2.50e5,2.90e5,2.41e6,2.67e6,inactive
CG17195,DRSC26415,2.43e5,2.18e5,7.09e5,4.35e5,inactive
CG15579,DRSC18067,4.51e5,4.36e5,5.42e6,4.33e6,inactive
spn-D,DRSC22641,1.04e6,7.13e5,1.99e6,1.18e6,inactive
RNaseMRP:RNA,DRSC36557,7.21e5,5.88e5,1.94e6,1.69e6,inactive
CG3301,DRSC15471,78186,87860,5.77e5,6.10e5,inactive
CG4116,DRSC18348,2.00e5,1.91e5,2.10e6,1.75e6,inactive
CG4116,DRSC29381,4.44e5,5.66e5,1.49e6,1.49e6,inactive
Muc91C,DRSC16297,3.12e5,2.41e5,3.52e6,3.17e6,inactive
Muc91C,DRSC21696,6.20e5,5.65e5,2.11e6,2.30e6,inactive
Muc91C,DRSC25918,7.08e5,5.96e5,8.33e5,9.51e5,inactive
CG14135,DRSC10140,3.19e5,2.91e5,3.27e6,1.95e6,inactive
SamDC,DRSC03429,6.43e5,7.96e5,1.64e6,1.72e6,inactive
CG16978,DRSC02553,2.02e5,2.59e5,1.39e6,1.56e6,inactive
Agps,DRSC05984,76734,68324,2.02e6,2.02e6,inactive
Agps,DRSC26742,7.09e5,4.26e5,9.64e5,2.66e5,inactive
Tsp47F,DRSC07325,2.35e5,99412,1.24e6,6.98e5,inactive
CG4066,DRSC15541,1.28e5,1.11e5,2.24e6,2.03e6,inactive
CG4066,DRSC29744,2.39e5,5.12e5,7.19e5,8.49e5,inactive
bark,DRSC00635,1.18e5,1.04e5,8.77e5,1.05e6,inactive
bark,DRSC27011,4.40e5,3.77e5,8.87e5,5.68e5,inactive
SppL,DRSC15228,1.16e5,1.26e5,1.91e6,2.03e6,inactive
CG10184,DRSC14204,78646,63687,5.18e5,6.00e5,inactive
mRpL51,DRSC02200,5.16e5,8.24e5,1.83e6,1.94e6,inactive
mRpL51,DRSC29908,3.10e5,2.90e5,1.05e6,1.22e6,inactive
CG7912,DRSC16343,1.48e5,1.32e5,1.87e6,2.34e6,inactive
CG3735,DRSC04411,4.75e5,5.27e5,1.18e6,1.13e6,inactive
CG17134,DRSC02583,1.38e5,1.72e5,1.55e6,1.57e6,inactive
CG30484,DRSC05457,1.35e5,1.50e5,2.67e5,4.11e5,inactive
CG12541,DRSC17839,2.90e5,3.21e5,2.78e6,2.24e6,inactive
CG12541,DRSC28362,3.34e5,5.43e5,1.13e6,1.64e6,inactive
CG9953,DRSC11106,1.12e5,86992,1.11e6,1.15e6,inactive
CG18262,DRSC18149,1.30e5,1.47e5,1.39e6,2.44e6,inactive
CG18262,DRSC24242,9.70e5,1.07e6,8.98e5,7.19e5,inactive
su(sable),DRSC18839,1.22e5,1.51e5,3.19e6,3.28e6,inactive
